Assay results published in PMC11808413 (FEBS letters, 2024).
No constants are given. Whether binding was seen depends on the method and setting. Some results given as binding are weak or reduced against the parent protein; the word gives no strength. Tags and fused reporters may be left off the sequences shown.

B1: MBP-tagged lumenal segment of Arabidopsis thaliana STN7 (AA 46-89), wild type (domain or fragment, UniProt Q9S713 46-89)
chain: AQLIDTVHNLFIGVGVGLPCTVMECGDMIYRSTLPKSNGLTITA
B2: MBP-tagged stromal segment of Arabidopsis thaliana STN7 (AA 162-216) (domain or fragment, UniProt Q9S713 162-216)
chain: GEYVLKKATEYGAVEIWMNERVRRACGNSCADFVYGFLDKSSKKGPEYWLLWKYE

Columns and labels:
[1] = target: MBP-tagged lumenal segment of Arabidopsis thaliana STN7 (AA 46-89), wild type (Arabidopsis thaliana) (UniProt Q9S713); assay: non-reducing SDS-urea-PAGE (disulfide-linked oligomers); 5 uM desalted MBP-tagged lumenal segment, air-oxidized or with 2 mM diamide or H2O2 for 30 minutes at room temperature, non-reducing 8 % SDS-urea-PAGE; oxidants raise the share of dimers, and higher order oligomers appear for the wild type; both purified
[2] = target: MBP-tagged lumenal segment of Arabidopsis thaliana STN7 (AA 46-89), wild type (Arabidopsis thaliana) (UniProt Q9S713); assay: condition: only after reducing the air-oxidized protein; non-reducing SDS-urea-PAGE (disulfide-linked oligomers); air-oxidized lumenal segment PEGylated with mPEG-MAL (15 uM protein, 25 °C, 1 hour) and then reduced; non-reducing 8 % SDS-urea-PAGE (lane 7, Fig. 1D); both purified
[3] = target: MBP-tagged stromal segment of Arabidopsis thaliana STN7 (AA 162-216) (Arabidopsis thaliana) (UniProt Q9S713); assay: non-reducing SDS-urea-PAGE (disulfide-linked oligomers); air-oxidized MBP-tagged stromal segment, non-reducing SDS-urea-PAGE, Coomassie stain; higher-order oligomers unchanged by 0.1 mM DTT, gone with Trx-f1 and 0.1 mM DTT; both purified

Binder | binding [1] | binding [2] | binding [3]
B1 | binds weakly | no binding | 
B2 |  |  | no binding
